The target in data set [1] is BmPSI I116G (Bombyx mori) (UniProt A8R081). The experiment in a line: EMSA. The conditions noted are these: RNA dissolved in protein purification buffer, 20 mM Tris, 20 mM NaCl (pH not given), recombinant protein, residues 1-703, protein details: N-terminal His6-MBP-TEV, label: 5' and 3' biotin. For orientation: Mobility shift assays separate free from complexed probe on a gel.

The target of data set [2] is BmPSI L127G (Bombyx mori) (UniProt A8R081). The experiment in a line: EMSA. The conditions noted are these: RNA dissolved in protein purification buffer, 20 mM Tris, 20 mM NaCl (pH not given), recombinant protein, residues 1-703, protein details: N-terminal His6-MBP-TEV, label: 5' and 3' biotin.
For data set [3], the target named is BmPSI mut IGGI I117A,G118A,G121A,I124A (Bombyx mori) (UniProt A8R081). The data set is described as follows: EMSA. The note with it: RNA dissolved in protein purification buffer, 20 mM Tris, 20 mM NaCl (pH not given), recombinant protein, residues 1-703, protein details: N-terminal His6-MBP-TEV, label: 5' and 3' biotin.
For another data set, the target named is MBP (UniProt P0AEX9). The experiment in a line: EMSA. The conditions noted are these: RNA dissolved in protein purification buffer, 20 mM Tris, 20 mM NaCl (pH not given), recombinant protein, protein details: His6-MBP from empty vector, label: 5' and 3' biotin.
Data set [4] concerns the target MBP-BmPSI ΔKH_1-1 (Bombyx mori) (UniProt A8R081). The data set is described as follows: EMSA. The note with it: RNA dissolved in protein purification buffer, 20 mM Tris, 20 mM NaCl (pH not given), recombinant protein, residues 1-703, protein details: N-terminal His6-MBP-TEV, label: 5' and 3' biotin.
For data set [5], the target named is MBP-BmPSI ΔKH_1-2 (Bombyx mori) (UniProt A8R081). The data set is described as follows: EMSA. The note with it: RNA dissolved in protein purification buffer, 20 mM Tris, 20 mM NaCl (pH not given), recombinant protein, residues 1-703, protein details: N-terminal His6-MBP-TEV, label: 5' and 3' biotin.
The target in data set [6] is MBP-BmPSI ΔKH_1-3 (Bombyx mori) (UniProt A8R081). The experiment in a line: EMSA. The conditions noted are these: RNA dissolved in protein purification buffer, 20 mM Tris, 20 mM NaCl (pH not given), recombinant protein, residues 1-703, protein details: N-terminal His6-MBP-TEV, label: 5' and 3' biotin.
Data set [7] addresses MBP-BmPSI ΔKH_1-4 (Bombyx mori) (UniProt A8R081). The data set is described as follows: EMSA. The note with it: RNA dissolved in protein purification buffer, 20 mM Tris, 20 mM NaCl (pH not given), recombinant protein, residues 1-703, protein details: N-terminal His6-MBP-TEV, label: 5' and 3' biotin.
The subject of data set [8] is MBP-SlPSI (Spodoptera litura). The data set is described as follows: EMSA. The conditions noted are these: protein gradient, RNA dissolved in protein purification buffer, 20 mM Tris, 20 mM NaCl (pH not given), recombinant protein, protein details: N-terminal His6-MBP-TEV, label: 5' and 3' biotin.
For data set [9], the target named is T1, SlPSI I116G (Spodoptera litura) (UniProt A0A9J7DW37).
T1 sequence (looked up, limits assumed): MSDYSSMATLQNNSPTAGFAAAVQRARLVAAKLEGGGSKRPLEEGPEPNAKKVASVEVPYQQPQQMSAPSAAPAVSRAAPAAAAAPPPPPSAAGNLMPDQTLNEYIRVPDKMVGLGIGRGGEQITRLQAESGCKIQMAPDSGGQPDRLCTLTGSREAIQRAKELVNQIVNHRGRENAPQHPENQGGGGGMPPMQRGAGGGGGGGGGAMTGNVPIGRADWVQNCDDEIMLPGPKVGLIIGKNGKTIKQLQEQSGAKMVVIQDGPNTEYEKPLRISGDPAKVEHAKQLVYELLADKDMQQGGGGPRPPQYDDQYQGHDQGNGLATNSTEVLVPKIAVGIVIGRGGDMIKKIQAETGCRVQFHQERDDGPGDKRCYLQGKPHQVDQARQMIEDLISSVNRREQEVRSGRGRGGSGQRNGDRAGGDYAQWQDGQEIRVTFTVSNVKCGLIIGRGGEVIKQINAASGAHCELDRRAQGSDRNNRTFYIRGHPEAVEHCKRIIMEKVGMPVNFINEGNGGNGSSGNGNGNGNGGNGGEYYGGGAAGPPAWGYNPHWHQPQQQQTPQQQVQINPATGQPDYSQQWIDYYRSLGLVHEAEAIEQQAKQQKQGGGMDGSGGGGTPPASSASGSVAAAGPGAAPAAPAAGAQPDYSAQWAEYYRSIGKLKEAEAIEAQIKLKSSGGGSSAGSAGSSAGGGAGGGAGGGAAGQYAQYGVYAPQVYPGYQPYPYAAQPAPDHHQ
The data set is described as follows: EMSA. The note with it: RNA dissolved in protein purification buffer, 20 mM Tris, 20 mM NaCl (pH not given), recombinant protein, protein details: N-terminal His6-MBP-TEV, label: 5' and 3' biotin.

Data set [10] addresses T2, SlPSI mut IGGI I117A,G118A,G121A,I124A (Spodoptera litura) (UniProt A0A9J7DW37).
T2 sequence (looked up, limits assumed): T1 sequence (looked up, limits assumed) with G116I, I117A, G118A, G121A, I124A
The data set is described as follows: EMSA. The note with it: abstract says binding lost, RNA dissolved in protein purification buffer, 20 mM Tris, 20 mM NaCl (pH not given), recombinant protein, protein details: N-terminal His6-MBP-TEV, label: 5' and 3' biotin.

In data set [11] the target is BmPSI I116G (Bombyx mori) (UniProt A8R081). The data set is described as follows: ITC. The note with it: 25 C; RNA dissolved in protein purification buffer, 20 mM Tris, 20 mM NaCl (pH not given); ITC at 25 C; recombinant protein; residues 1-703; protein details: N-terminal His6-MBP-TEV.
In data set [12] the target is BmPSI L127G (Bombyx mori) (UniProt A8R081). The data set is described as follows: ITC. The note with it: 25 C; RNA dissolved in protein purification buffer, 20 mM Tris, 20 mM NaCl (pH not given); ITC at 25 C; recombinant protein; residues 1-703; protein details: N-terminal His6-MBP-TEV.
The target of data set [13] is BmPSI mut IGGI I117A,G118A,G121A,I124A (Bombyx mori) (UniProt A8R081). The experiment in a line: ITC. The note with it: 25 C; RNA dissolved in protein purification buffer, 20 mM Tris, 20 mM NaCl (pH not given); ITC at 25 C; recombinant protein; residues 1-703; protein details: N-terminal His6-MBP-TEV.
Data set [14] concerns the target MBP-BmPSI ΔKH_1-3 (Bombyx mori) (UniProt A8R081). The data set is described as follows: competition with a labelled probe. The note with it: unlabeled CE1 against biotin-CE1; RNA dissolved in protein purification buffer, 20 mM Tris, 20 mM NaCl (pH not given); EMSA buffer not given; recombinant protein; residues 1-703; protein details: N-terminal His6-MBP-TEV.
For data set [15], the target named is MBP-BmPSI ΔKH_1-4 (Bombyx mori) (UniProt A8R081). The data set is described as follows: competition with a labelled probe. The conditions noted are these: unlabeled CE1 against biotin-CE1; RNA dissolved in protein purification buffer, 20 mM Tris, 20 mM NaCl (pH not given); EMSA buffer not given; recombinant protein; residues 1-703; protein details: N-terminal His6-MBP-TEV.

In data set [16] the test system is MBP-SlPSI (Spodoptera litura). The data set is described as follows: competition with a labelled probe. The note with it: unlabeled CE1 against biotin-CE1; RNA dissolved in protein purification buffer, 20 mM Tris, 20 mM NaCl (pH not given); EMSA buffer not given; recombinant protein; protein details: N-terminal His6-MBP-TEV.

Where a chain is given by its changes, count along the chain named. For some assays here: No signal at the amounts used counts as a negative. For some assays here: Weaker means in comparison with the reference protein, sequence or condition of that experiment. For some assays here: The exact form of at least one protein or probe is not confirmed. For some assays here: At least one verdict was read from the data and is not stated in words by the source. For some assays here: Where a protein sequence is shown, tags need not be part of it.

The results in this text go back to PMC6539025, “P-element Somatic Inhibitor Protein Binding a Target Sequence in dsx Pre-mRNA Conserved in Bombyx mori and Spodoptera litura”.

In the case of “UUAAUAAUAUAAGUGGUGUA [CE1 RNA probe, biotin]”, the binding result in data set [1] was “binds more weakly”; in data set [2] it was “binds more weakly”; in data set [3], “binds more weakly”; with MBP, “no binding”; in [4], “no binding”; in data set [5] it was “no binding”. For the same sequence, the binding result is reported as “binds more weakly” in data set [6]; “binds more weakly” in data set [7]; “binds” in data set [8]; “binds more weakly” in data set [9]; “binds more weakly” in data set [10].

Take “UUAAUAAUAUAAGUGGUGUA [CE1 RNA, unlabeled]”: the binding result is recorded as “binds more weakly” in data set [11]; “binds more weakly” in data set [12]; “binds more weakly” in data set [13]; “binds” in [14]; “binds” in data set [15]; “binds” in [16].
